Data set [1] has as its system Acinetobacter baumannii ATCC BAA 1605. The procedure: (§1) The Acinetobacter baumannii ATCC BAA-1605, Enterococcus faecium ATCC 700221, Escherichia coli ML-35 ATCC 43827, Klebsiella aerogenes ATCC 13048, Klebsiella pneumoniae ATCC 700603, Pseudomonas aeruginosa ATCC 9027, Staphylococcus aureus ATCC 25923, Staphylococcus aureus ATCC 33591, Candida albicans ATCC 10231, Candida glabrata ATCC 15126, strains were acquired from the American Type Culture Collection (ATCC). All the strains were stored at −80 °C in Roti-Store cryo vials and before the tests were transferred into fresh Mueller–Hinton broth (MHB, Biocorp, Warsaw, Poland) for bacteria or RPMI-1640 (Sigma-Aldrich, Steinheim, Germany) for fungi and incubated for 24 h at 37 °C. Then, the cultures were seeded on the Mueller–Hinton agar (BioMaxima, Lublin, Poland) or Sabouraud dextrose agar (SDA, BioMaxima, Lublin, Poland) plates, respectively, and incubated as just mentioned. These agar cultures were used for further microbiological assays. Cell densities for all assays were adjusted spectrophotometrically (Multiskan GO Microplate Spectrophotometer, Thermo Fisher Scientific, Vantaa, Finland) at 600 and 530 nm for bacteria and fungi, respectively.
(§2) The MICs were determined by the broth microdilution method according to the Clinical and Laboratory Standard Institute guidelines. […] The experiments were conducted on 96-well microtiter polystyrene plates (Kartell, Noviglio, Italy). The growth was assessed visually after incubation, and the MIC was assumed as the lowest peptide concentration at which a noticeable growth of microorganisms was inhibited. All experiments were conducted in triplicate.

Data set [2] deals with Enterococcus faecium ATCC 700221. The procedure:
as §1, §2

The subject of data set [3] is Klebsiella aerogenes ATCC 13048. The procedure:
as §1, §2

The test system of data set [4] is Klebsiella pneumoniae ATCC 700603. The method, then:
as §1, §2

Data set [5] relates to Pseudomonas aeruginosa ATCC 9027. The procedure: as §1, §2
Data set [6] concerns Staphylococcus aureus ATCC 25923. The procedure:
as §1, §2

The test system of data set [7] is Staphylococcus aureus ATCC 33591. The method, then: as §1, with “[…],” for “Poland) for bacteria or RPMI-1640 (Sigma-Aldrich,”, “Cell densities for all assays were adjusted spectrophotometrically (Multiskan GO Microplate Spectrophotometer, Thermo Fisher Scientific, Vantaa, Finland) at 600 and 530 nm for bacteria and fungi, respectively.” left out
as §2

Data set [8] deals with C. albicans ATCC 10231. The procedure: as §1
(§3) The MICs were determined by the broth microdilution method according to the Clinical and Laboratory Standard Institute guidelines. For this purpose, initial inoculums of bacteria (5 × 10^5 CFU/mL) in MHB and yeasts (2 × 10^3 CFU/mL) in RPMI-1640 with 2% D-glucose were exposed to the ranging concentration of lipopeptides (0.5–256 μg/mL) and incubated at 37 °C for 18 h and 24 h, respectively. The experiments were conducted on 96-well microtiter polystyrene plates (Kartell, Noviglio, Italy). The growth was assessed visually after incubation, and the MIC was assumed as the lowest peptide concentration at which a noticeable growth of microorganisms was inhibited. All experiments were conducted in triplicate.

Data set [9] concerns C. glabrata ATCC 15126. The method, then:
as §1, §3

Results on three molecules are retold here after publication PMC8036666, “Biological and Physico-Chemical Characteristics of Arginine-Rich Peptide Gemini Surfactants with Lysine and Cystine Spacers” (International Journal of Molecular Sciences, 2021).

Where a SMILES comes first, the peptide text is derived from it. Bridges are numbered along the chain shown (N, C = ends). Roman numbers before positions name the chains, in order. The star is where a group is joined. Octanoyl = CCCCCCCC(=O)*

As to `CCCCCCCC(=O)N[C@@H](Cc1ccccc1)C(=O)N[C@@H](CCCNC(=N)N)C(=O)N[C@@H](CCCNC(=N)N)C(=O)N[C@@H](CSSC[C@H](NC(=O)[C@H](CCCNC(=N)N)NC(=O)[C@H](CCCNC(=N)N)NC(=O)[C@H](Cc1ccccc1)NC(=O)CCCCCCC)C(N)=O)C(N)=O` [Compound C5] (I: Octanoyl-FRRC-NH2 / II: Octanoyl-FRRC-NH2; disulfide I:4-II:4), the “SI HaCaT (IC50HaCaT/MIC)” value in data set [1] turned out to be 4.58; in [2] it was 73.32; in [3], 1.15; in data set [4] it was 4.58; in data set [5] it was 18.33; in data set [6] it was 73.32. For the same molecule, the “SI HaCaT (IC50HaCaT/MIC)” value in data set [7] was 73.32; in [8] it was 18.33; in data set [9] it was 18.33. Further, the “SI hRBCs (HC50/MIC)” value in [1] was found to be 3.66; in data set [2], 58.53; in data set [3], 0.91; in data set [4] it was 3.66; in data set [5], 14.63; in data set [6] it was 58.53. Also, the figures for the “SI hRBCs (HC50/MIC)” value in [7], in data set [8] and in data set [9] were 58.53, 14.63 and 14.63, respectively.
In the case of `CCCCCCC(CCCC)C(=O)N[C@@H](CCCNC(=N)N)C(=O)N[C@@H](CCCNC(=N)N)C(=O)NCCCC[C@H](NC(=O)[C@H](CCCNC(=N)N)NC(=O)[C@H](CCCNC(=N)N)NC(=O)C(CCCC)CCCCCC)C(N)=O` (stereo partly drawn) [Compound B7], the “SI HaCaT (IC50HaCaT/MIC)” value was found to be 2.46 in [1]; 78.78 in data set [2]; 4.92 in [3]; 2.46 in data set [4]; 19.70 in [5]; 78.78 in data set [6]. Moreover, the figures for the “SI HaCaT (IC50HaCaT/MIC)” value in data set [7], in data set [8] and in data set [9] were 157.56, 9.85 and 4.92, respectively. For the same molecule, the “SI hRBCs (HC50/MIC)” value is on record as above 8 in [1]; above 256 in data set [2]; above 16 in data set [3]; above 8 in [4]; above 64 in [5]; above 256 in data set [6]. Besides, the “SI hRBCs (HC50/MIC)” value in data set [7] is recorded as above 512; in [8], above 32; in data set [9] it was above 16.
For the molecule `CCCCCCC(CCCC)C(=O)N[C@@H](CCCNC(=N)N)C(=O)N[C@@H](CCCNC(=N)N)C(=O)N[C@@H](CSSC[C@H](NC(=O)[C@H](CCCNC(=N)N)NC(=O)[C@H](CCCNC(=N)N)NC(=O)C(CCCC)CCCCCC)C(N)=O)C(N)=O` (stereo partly drawn) [Compound C7], the “SI HaCaT (IC50HaCaT/MIC)” value in data set [1] stood at 5.12; in data set [2] it was 81.99; in data set [3], 10.25; in [4], 5.12; in [5] it was 41.00; in data set [6] it was 81.99. For the same molecule, the “SI HaCaT (IC50HaCaT/MIC)” value was 81.99 in data set [7], 10.25 in data set [8] and 10.25 in [9]. For the same molecule, the “SI hRBCs (HC50/MIC)” value is above 8 in data set [1]; above 128 in data set [2]; above 16 in [3]; above 8 in data set [4]; above 64 in [5]; above 128 in [6]. In addition, the “SI hRBCs (HC50/MIC)” value in data set [7] is listed as above 128; in [8] it was above 16; in data set [9], above 16.
